Data as given in PubChem BioAssay AID2685 (National Center for Advancing Translational Sciences (NCATS), 2010).
The other results are listed elsewhere or left out. These are further read-outs of the screen, such as a control signal, another cell line or another target. No call is given for them. Compounds called inactive in the main read-out are mostly missing here. The note in brackets gives the kind of curve behind each potency; many fits are weak.

Experiment: qHTS Assay for Lipid Storage Modulators in Drosophila S3 Cells;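 on cell number change: cells counted by Cell Tracker Red CMTPX staining in the red channel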
Conditions: BODIPY lipid droplet fluorescence, 18-24 h; for cell number change: measured here: cell count max response, cells fed with added oleic acid
How it was run: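 Drosophila S3 cells got compounds at several concentrations plus oleic acid (400 uM solution). Laser-scanning cytometry with 488 nm excitation read lipid droplets at 500-530 nm and cells at 575-640 nm. Percent activity was relative to 20 uM Triacsin C.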

[1] = measured here: lipid fluorescence (Fed channel) AC50, cells fed with added oleic acid
[2] = measured here: cell number channel AC50, cells fed with added oleic acid

Structure (SMILES) | cell number change | AC50 [1] | AC50 [2]
CCc1c(C)sc2nc(SCC(=O)Nc3cc(C)on3)n(CCOC)c(=O)c12 | 24.3% | 1.3 µM [rising, partial curve] | 
CCCc1cc(=O)[nH]c(SCC(=O)Nc2ccc(C)cc2)n1 | -2.02% |  | 6.51 µM [falling, single point]
COC(=O)[C@@H](NC(=O)Nc1ccccc1F)C(C)C | 5.38% |  | 
COc1ccc(CCNC(=O)c2cc(=O)c3ccc(C)cc3o2)cc1OC | 6.83% | 6.51 µM [rising, single point] | 
Cc1ccc(C(=O)N2CCN(S(=O)(=O)c3ccc(C)cc3)CC2)cc1 | -42.1% | 2.59 µM [falling, full curve] | 3.66 µM [falling, full curve]
O=C(CCNC(=O)N1CC(=O)Nc2ccccc21)Nc1ccc(Cl)cc1 | -7.03% | 0.0092 µM [falling, full curve, poor fit] | 
CSc1nsc(/C=C/Nc2ccc(C(=O)O)cc2)c1C#N | -16.6% | 29.1 µM [falling, single point] | 
Cc1ccc(OCCCCN2CCCCC2)cc1 | 7.37% |  | 0.461 µM [rising, partial curve, poor fit]
CC(C)(C)NC(=O)c1nc2ccccc2s1 | -4.41% | 2.59 µM [rising, partial curve] | 
COc1ccc(NC(=O)Nc2ccc(F)cc2)cn1 | 22.2% | 6.51 µM [rising, single point] | 
COc1ccc(C(=O)Nc2ccc3oc(-c4cccnc4)nc3c2)cc1OC | -16.6% | 0.092 µM [falling, full curve, poor fit] | 
O=C(/C=C/c1cccc([N+](=O)[O-])c1)N1CCN(c2ccccn2)CC1 | -23.8% | 6.51 µM [rising, single point] | 
COc1ccc(S(=O)(=O)Cc2ccc(C(=O)N3CCN(C4CCCCC4)CC3)o2)cc1 | -13.4% | 0.092 µM [falling, full curve, poor fit] | 
CC(OC(=O)c1cccc(S(=O)(=O)Nc2ccccc2F)c1)C(=O)NCc1ccc2c(c1)OCO2 (configuration not stated) |  | 10.3 µM [rising, partial curve, poor fit] | 
CC1CCN(c2ccc(S(=O)(=O)N3CCC(C)CC3)cc2N)CC1 | -24.5% |  | 
CCC/C(=C1/C(=O)CC(C)(C)C(C(=O)OC)C1=O)N1CCCC1 (configuration not stated) | 22.2% | 18.4 µM [rising, partial curve, poor fit] | 
CC(=O)N1c2ccc(S(=O)(=O)NC(CC(=O)O)c3ccc(Br)cc3)cc2CC1C (configuration not stated) | 24.5% | 1.03 µM [rising, full curve] | 

Reformatted in markdown: part of the list above.

| Structure (SMILES) | cell number change | AC50 [1] | AC50 [2] |
| --- | --- | --- | --- |
| O=C(CCNC(=O)N1CC(=O)Nc2ccccc21)Nc1ccc(Cl)cc1 | -7.03% | 0.0092 µM [falling, full curve, poor fit] |  |
| CSc1nsc(/C=C/Nc2ccc(C(=O)O)cc2)c1C#N | -16.6% | 29.1 µM [falling, single point] |  |
